Drawing on PubChem BioAssay AID248 (DTP/NCI, 2004), this text covers T/C and survivor count for 16 compounds.

For this assay, the system named is L1210 leukemia ip in BDF1 mice, survival T/C. Description: NCI In Vivo Anticancer Drug Screen. Data for tumor model L1210 Leukemia (intraperitoneal) in B6D2F1 (BDF1) mice. The note with it: T/C endpoint: mean survival time, higher T/C = longer survival.
Where [1] appears, read: dose: 200.0 mg/kg/injection, schedule: Q04DX003 (ip), vehicle: saline with Tween-80.
[2] abbreviates: dose: 400.0 mg/kg/injection, schedule: Q04DX003 (ip), vehicle: saline with Tween-80.
The mark [3] stands for this setting: dose: 400.0 mg/kg/injection, schedule: Q04DX003 (ip), vehicle: Klucel (hydroxypropylcellulose) (HPC).

The list is a part of this screen's results and no random one: it gathers tests that were run many times, whatever their T/C, doses with no T/C, and many T/C values between a quarter and a half above the control. Other doses and runs of a compound stand elsewhere. T/C gives the treated animals as a percentage of the vehicle group. Some entries give survivors of the animals treated and no T/C: the source holds a T/C of zero for them, seemingly a mark for toxic or unscored doses. Some survivor counts are full or nearly so, which does not show that the dose was tolerated: the source hardly ever lists a survival T/C far under the control, and the zero likely stands for such cases as well. Survivors were counted at the toxicity check, usually on the fifth day, unless a day is given; later deaths do not show. Schedule codes are those of the source, read here as Q, the interval in days (D) or hours (H), X, the number of doses. Some schedule codes hold Z or #, which are not explained here. Where survival is the endpoint, the PubChem record calls one and a half times the control and up active, and a quarter to a half above the control has no call in these data; cut-offs in other NCI protocols can differ. Signs of the kind (2×) stand for listed records that agree. Some doses were run more than once; their values stand side by side, smallest first. Some T/C values are followed by the survivors on the day toxicity was checked, most often the fifth; without a count, all were alive then.

In the case of `CN(Cc1ccccc1)/N=N/c1nc[nH]c1C(N)=O`, the T/C (dose: 16.1 mg/kg/injection, schedule: Q01DX009 (ip), vehicle: saline with Tween-80, evaluated on day 5) was 104 and 109 % of control; the T/C (dose: 16.1 mg/kg/injection, schedule: Q01DX009 (ip), vehicle: saline with Tween-80, evaluated on day 60) was 104 and 109 % of control; the T/C (dose: 32.2 mg/kg/injection, schedule: Q01DX009 (ip), vehicle: saline with Tween-80, evaluated on day 5) was 114 and 121 % of control; the T/C (dose: 32.2 mg/kg/injection, schedule: Q01DX009 (ip), vehicle: saline with Tween-80, evaluated on day 60) was 114 and 121 % of control; the T/C (dose: 50.0 mg/kg/injection, schedule: Q01DX009 (ip), vehicle: acetone) was 134 % of control; the T/C (dose: 50.0 mg/kg/injection, schedule: Q01DX009 (ip), vehicle: water) is 144 and 146 % of control. Besides, the T/C is 137 % of control (2×) (dose: 64.5 mg/kg/injection, schedule: Q01DX009 (ip), vehicle: saline with Tween-80, evaluated on day 5); 137 % of control (2×) (dose: 64.5 mg/kg/injection, schedule: Q01DX009 (ip), vehicle: saline with Tween-80, evaluated on day 60); 139 % of control (dose: 100.0 mg/kg/injection, schedule: Q01DX009 (ip), vehicle: saline with Tween-80); 130 % of control (dose: 100.0 mg/kg/injection, schedule: Q01DX009 (ip), vehicle: saline); 125 % of control (dose: 100.0 mg/kg/injection, schedule: Q04DX003 (ip), vehicle: water); 149 and 159 % of control (dose: 129.0 mg/kg/injection, schedule: Q01DX009 (ip), vehicle: saline with Tween-80, evaluated on day 5). Moreover, the T/C by setting is: (dose: 129.0 mg/kg/injection, schedule: Q01DX009 (ip), vehicle: saline with Tween-80, evaluated on day 60) 150 and 159 % of control; (dose: 200.0 mg/kg/injection, schedule: Q04DX003 (ip), vehicle: water) 132 % of control; (dose: 258.0 mg/kg/injection, schedule: Q01DX009 (ip), vehicle: saline with Tween-80, evaluated on day 5) 93 and 105 % of control; (dose: 258.0 mg/kg/injection, schedule: Q01DX009 (ip), vehicle: saline with Tween-80, evaluated on day 60) 93 % of control [9 of 10 alive]; (dose: 400.0 mg/kg/injection, schedule: Q01DX001 (ip), vehicle: water) 128 % of control; (dose: 400.0 mg/kg/injection, schedule: Q04DX003 (ip), vehicle: water) 146 % of control. For the same compound, the survivor count reads like this: (dose: 200.0 mg/kg/injection, schedule: Q01DX009 (ip), vehicle: saline) 6 of 6; (dose: 258.0 mg/kg/injection, schedule: Q01DX009 (ip), vehicle: saline with Tween-80) 5 of 10; (dose: 400.0 mg/kg/injection, schedule: Q01DX009 (ip), vehicle: saline with Tween-80) 3 of 6; (dose: 400.0 mg/kg/injection, schedule: Q01DX009 (ip), vehicle: saline) 2 of 6; (dose: 400.0 mg/kg/injection, schedule: Q01DX009 (ip), vehicle: water) 6 of 10.

For the compound `Cc1ccc(N=CNN=C(N)N)cc1`, the survivor count (dose: 60.0 mg/kg/injection, schedule: Q01DX Z (oral), vehicle: methylcellulose (MC)) was 6 of 6.

Take `CC[CH2][Sn]([Cl])([Cl])[CH2]CC`: the survivor count (dose: 4.0 mg/kg/injection, schedule: Q01DX009 (ip), vehicle: saline) is given as 3 of 6; the survivor count (dose: 5.9 mg/kg/injection, schedule: Q01DX009 (ip), vehicle: saline) is listed as 0 of 6; the survivor count (dose: 9.0 mg/kg/injection, schedule: Q01DX009 (ip), vehicle: saline) was 0 of 6; the survivor count (dose: 13.0 mg/kg/injection, schedule: Q01DX009 (ip), vehicle: saline) is listed as 0 of 6.

Consider `CC(=O)OCC1OC(N2C(=O)/C(=C/c3ccc4ccccc4c3)SC2=S)C(OC(C)=O)C(OC(C)=O)C1OC(C)=O` (centres undefined), for which the survivor count is reported as 6 of 6 (dose: 100.0 mg/kg/injection, schedule: Q01DX005 (ip), vehicle: other); 5 of 6 (dose: 200.0 mg/kg/injection, schedule: Q01DX005 (ip), vehicle: other); 6 of 6 (dose: 400.0 mg/kg/injection, schedule: Q01DX005 (ip), vehicle: other).

Consider `c1ccc2c(CNC3CCCCC3)c[nH]c2c1`, for which the survivor count is, setting by setting: (dose: 100.0 mg/kg/injection, schedule: Q01DX001 (ip), vehicle: carboxymethylcellulose (CMC)) 1 of 4; (dose: 120.0 mg/kg/injection, schedule: Q01DX015 (ip), vehicle: carboxymethylcellulose (CMC)) 0 of 6; (dose: 180.0 mg/kg/injection, schedule: Q01DX015 (ip), vehicle: carboxymethylcellulose (CMC)) 0 of 6; (dose: 200.0 mg/kg/injection, schedule: Q01DX001 (ip), vehicle: carboxymethylcellulose (CMC)) 0 of 4; (dose: 240.0 mg/kg/injection, schedule: Q01DX015 (ip), vehicle: carboxymethylcellulose (CMC)) 0 of 6; (dose: 400.0 mg/kg/injection, schedule: Q01DX001 (ip), vehicle: carboxymethylcellulose (CMC)) 0 of 4.

In the case of `CCCCC(CCCC)NCCO`, for the setting “dose: 300.0 mg/kg/injection, schedule: Q01DX001 (ip), vehicle: carboxymethylcellulose (CMC)”, the survivor count was 0 of 6.

In the case of `CCCCNCCN(CC)CC`, the survivor count under setting [1] was 0 of 6 and the survivor count under setting [2] is 0 of 6.

Take `NC(=S)N/N=C/c1cc(-c2cccc(N)c2)ccn1`: the T/C (dose: 75.0 mg/kg/injection, schedule: Q01DX009 (ip), vehicle: saline with Tween-80) is 125 % of control.

As to `c1ccc(-c2ccccc2NC2=NCCO2)cc1`, the survivor count is 6 of 6 (dose: 100.0 mg/kg/injection, schedule: Q04DX003 (ip), vehicle: saline with Tween-80); 6 of 6 under setting [1]; 0 of 6 under setting [2].

On to `COc1ccc(CCCNCCCCCCNCCCc2ccc(OC)cc2)cc1`, for which, where the note is “dose: 200.0 mg/kg/injection, schedule: Q04DX002 (ip), vehicle: Klucel (hydroxypropylcellulose) (HPC)”, the survivor count is listed as 1 of 3.

`CCCCCCCCCCC[CH2][Hg][Cl]`: the survivor count is, setting by setting: (dose: 12.5 mg/kg/injection, schedule: Q04DX003 (ip), vehicle: Klucel (hydroxypropylcellulose) (HPC)) 1 of 6; (dose: 25.0 mg/kg/injection, schedule: Q04DX003 (ip), vehicle: Klucel (hydroxypropylcellulose) (HPC)) 0 of 6; (dose: 100.0 mg/kg/injection, schedule: Q04DX003 (ip), vehicle: Klucel (hydroxypropylcellulose) (HPC)) 1 of 6; (dose: 200.0 mg/kg/injection, schedule: Q04DX003 (ip), vehicle: Klucel (hydroxypropylcellulose) (HPC)) 1 of 6; under setting [3], 0 of 6.

Turning to `O=C(Nc1ccc([N+](=O)[O-])cc1Cl)c1cc(Cl)ccc1O`, the survivor count (dose: 400.0 mg/kg/injection, schedule: Q04DX002 (ip), vehicle: Klucel (hydroxypropylcellulose) (HPC)) is 3 of 3.

Regarding `CN=C(c1ccc(NC(=O)c2ccc(C(=O)Nc3ccc(C(=NC)N(C)c4ccccc4)cc3)cc2)cc1)N(C)c1ccccc1`, the survivor count is 0 of 6 (dose: 7.5 mg/kg/injection, schedule: Q01DX Z (ip), vehicle: saline); 0 of 6 (dose: 15.0 mg/kg/injection, schedule: Q01DX Z (ip), vehicle: other); 0 of 6 (dose: 30.0 mg/kg/injection, schedule: Q01DX Z (ip), vehicle: other); 0 of 6 (dose: 60.0 mg/kg/injection, schedule: Q01DX Z (ip), vehicle: other); 0 of 6 (dose: 120.0 mg/kg/injection, schedule: Q01DX Z (ip), vehicle: other).

Turning to `CC1NC(=O)C(NC(=O)c2cnc3ccccc3n2)COC(=O)C(C(C)C)N(C)C(=O)C2CSSCC(C(=O)N(C)C(C(C)C)C(=O)OCC(NC(=O)c3cnc4ccccc4n3)C(=O)NC(C)C(=O)N2C)N(C)C1=O` (centres undefined), the T/C (dose: 200.0 micrograms/kg/injection, schedule: Q01DX009 (ip), vehicle: other) is 133 % of control.

`CN=C1N[N+]2=C(C)CCCC2S1` (centres undefined): the survivor count (dose: 400.0 mg/kg/injection, schedule: Q04DX003 (ip), vehicle: saline) is 0 of 4.

In the case of `CC(=O)Nc1ccc(Oc2ccccc2)cc1`, the survivor count under setting [3] is on record as 4 of 6.
